{"source": "patent US20090215895A1", "about": "“Therapeutic and carrier molecules” (PEPLIN BIOLIPIDS PTY LTD, priority 2004, published 2009)", "key": {"IKK": {"test_system": "IKK", "assay": "TNF-stimulated activation of IKK in HUVEC (immunoprecipitation kinase assay)", "type": "cell-based, human", "settings": "20 μmol/l, 30 min, TNF 5 min", "method": "FIG. 17 is a representation showing (A) the effect of MP3 (β-oxa 23:4n-6) and DHA on TNF-induced degradation of IκBα in HUVEC. Cells were pre-treated with the fatty acids (20 μmol/l) for 30 min and then stimulated with TNF (125 U/ml) for 10 min. After cell lysis the proteins were analyzed by Western blots using anti-IκBα antibodies. (B) The effects of β-oxa-23:4n-6 on TNF-induced activation of transcriptional factor, NFκB in HUVEC. Cells were pre-treated with β-oxa-23:4n-6 (20 μmol/l) for 30 min and then stimulated with TNF for 2 hr. After cell lysis, nuclear fractions were prepared, nuclear proteins separated by SDS PAGE (12% w/v gel), transferred to nitrocellulose and probed with an anti-NFκB p65 antibody (Santa Cruz). […] (C) The effect of β-oxa 23:4n-6 on TNF-stimulated activation of IKK. Cells were pre-treated with β-oxa 23:4n-6 (20 μmol/l) for 30 min and then stimulated with TNF for 5 min. After cell lysis IKK was immunoprecipitated with anti-IKKα antibody and kinase activity determined.\nIKK was immunoprecipitated with anti-IKKα (M-280) antibody (sc-7182, Santa Cruz, Biotech) and kinase activity determined using GST-IκBA (residues 5-55) as previously described (Lee et al, 1998 supra). Proteins were fractionated by SDS PAGE and radioactivity associated with GST-IκBα (residues 5-55) determined using an instant imager."}, "neutrophil NADPH oxidase": {"test_system": "neutrophil NADPH oxidase", "assay": "Neutrophil respiratory burst (NADPH oxidase activation, chemiluminescence)", "type": "cell-based", "settings": "human neutrophils, up to 30 μmol/l", "method": "The structure of PT2 is shown in (c) above. In this screening assay, neutrophils were prepared from the blood of healthy volunteers. Freshly collected blood was layered onto a Hypaque-Ficoll medium of density 1.114 and centrifuged at 400 g for 30 mins at room temperature. After centrifugation, the leukocytes resolved into two distinct bands, with neutrophils being present in the second band (Ferrante and Thong, J. Immun. Methods 48:81-85, 1982).\nActivation of the neutrophil NADPH oxidase was measured by lucigenin-dependent chemiluminescence following a 10 min incubation of PT2 (20 μM, final concentration) with 1×10^6 neutrophils from different donors (Power et al, J. Immunol. 159:2952-2959, 1997). Arachidonic acid (20:4, n-6) was used as a positive stimulator of the oxidase\nNeutrophil respiratory burst was determined as previously described (Li et al, J. Clin. Invest. 97:1605-1609, 1996)."}}, "note": "At least one compound was matched to its structure with a doubt left.", "data": [{"smiles": "CC/C=C\\C/C=C\\C/C=C\\C/C=C\\C/C=C\\C/C=C\\CCC(=O)O", "note": "[22:6n-3, docosahexaenoic acid, reference compound]", "values": [{"measurement": "TNF-stimulated activation of IKK / IκB kinase-NFκB signalling pathway", "setting": "IKK", "result": "less effective than MP3"}, {"measurement": "Stimulation of the neutrophil respiratory burst (chemiluminescence response)", "setting": "neutrophil NADPH oxidase", "result": "produced marked responses"}]}]}
